In PubChem BioAssay AID448 (National Center for Advancing Translational Sciences (NCATS), 2006) one finds Potency data, which are given here for three molecules.

Shown are results outside the selection of hits, which stands elsewhere. The source made the active and inactive calls. Calls follow the shape of the full dose curve.
Potency is read from the fitted curve at half-maximal effect.

The test system of this test is Schistosoma mansoni peroxiredoxin 2 (Prx2). As to the kind of experiment: Schistosoma Mansoni Peroxiredoxins (Prx2). Particulars: S. mansoni Prx2 activity coupled to TGR/GSH (TGR is thioredoxin glutathione reductase), NADPH fluorescence loss, qHTS. An excerpt:
NIH Molecular Libraries Screening Centers Network [MLSCN]
NIH Chemical Genomics Center [NCGC]
David Williams [Illinois State University]
Schistosoma mansoni, a causative agent of schistosomiasis, resides in the bloodstream of their host up to 30 years without being eliminated by the host immune attack. One proposed survival mechanism is the production of an antioxidant "firewall" that neutralizes the oxidative assault of the host's immune attack. Schistosoma mansoni peroxiredoxins (Prx) are important parasite antioxidant proteins that play a crucial role in redox balance mechanisms. […] First, the proteins are essential for the parasite survival. […] Third, the protein(s) is amenable for study at the molecular level and can be produced in bacteria in large quantities, in soluble and active form. Inhibition of Prx activity was screened in a coupled-enzyme format with reducing equivalents being transferred from NADPH to […] intermediate via thioredoxin/glutathione reductase (TGR)-catalyzed reaction, then from thioredoxin to hydrogen peroxide via Prx-catalyzed electron transfer. A decrease in the fluorescence intensity of NADPH was used to measure the enzyme activity. Purified S. mansoni TGR and Prx were provided by Professor David L. Williams, Illinois State University.
NCGC Assay Protocol Summary:
100 mM phosphate buffer, pH 7.4, 10 mM EDTA, 0.01% Tween-20.
100 uM NADPH/25 nM TGR/700 uM GSH/50 nM Prx2 mixture in columns 1, 2, 5-48. Titration of control potassium antimonyl tartrate (PAT, from 1 mM, then 1:5) pin-transferred to lower half of column 2. Column 1 and upper half of column 2 are neutral (100% activity).
Three uL of reagents were dispensed to 1536-well Greiner black plates. Compounds and controls (20 nL) were transferred via Kalypsys PinTool. […] The plate was transferred to ViewLux (Perkin-Elmer) High-throughput CCD imager where kinetic measurements (every 30 sec, for a total of 8 min) of NADPH fluorescence were taken using 365 nm excitation/450 nm emission filter set. […]
For the molecule `C[N+]1(C)CC[C@@H](OC(=O)[C@@](O)(c2ccccc2)C2CCCC2)C1`, the Potency was inactive: > 57 µM. Under `CN[C@@H](C)[C@H]1CC[C@@H](N)[C@@H](O[C@@H]2[C@@H](O)[C@@H](O[C@H]3OC[C@@](C)(O)[C@@H](NC)[C@@H]3O)[C@H](N)C[C@@H]2N)O1` (tested in a mixture with another compound) stands inactive: > 57 µM. Turning to `CC(C)[N+]1(C)[C@@H]2CC[C@H]1CC(OC(=O)[C@@H](CO)c1ccccc1)C2` (stereo partly drawn), the Potency is inactive: > 57 µM.
